Experimental data: PubChem BioAssay AID504648 (National Center for Advancing Translational Sciences (NCATS), 2011)
Screen size: about 390,000 compounds; about 610 (0.16%) were called active. Inconclusive means that the source gave no clear call. Such entries were picked first, then a sample of the others. Calls come from the whole dose curve; as a rule, active = well fitted inhibition curve with a large enough effect; inconclusive = small, poorly fitted or top-dose-only effect, or effect the other way, or another doubt; inactive = no such curve, though single readings can be large or run the other way. Potencies beside an inconclusive call are fits to weak or partial responses and may not hold up.

Experiment: Nrf2 qHTS screen for inhibitors: counterscreen for cytotoxicity
Settings: A549 ARE-Fluc cells, CellTiter-Fluor viability, 18-24 h; activity change, negative = cytotoxicity: at 46 µM (top of the series)
Summary of the method: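 A549 ARE-Fluc cells in 5% FBS OPTI-MEM, 5000 cells/well, rested 2 h then exposed to compounds in concentration-response for 18-24 h at 37 °C. Viability by CellTiter-Fluor fluorescence (Ex 405/Em 525) after 30 min; luciferase luminescence (BugLite, 15 min, RT) read afterwards.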
% is set by controls: 0 for no effect and ±100 for the full control effect; potency is the fitted concentration of half-maximal effect.

Question: Which Potency does the source give for Cc1ccc(S(=O)(=O)Nc2nc3n(n2)C(c2ccc(Cl)cc2)C=C(c2ccccc2)N3)cc1 (stereo not given) here?
Answer: inconclusive: 23.1 µM [activator, partial curve, poor fit]

Question: With COc1ccccc1C1CC(=O)Oc2cc(C)c(Cl)cc21 (stereo not given) as the compound, how does the Potency read?
Answer: inactive

Question: For O=S(=O)(c1ccc(Br)cc1)N1CCn2cccc2C1c1ccc(Br)cc1 (stereo not given), which Potency is on record?
Answer: inactive

Question: Which Potency does the source give for O=C(CN1CCCc2ccccc21)N/N=C/c1ccccc1 here?
Answer: inconclusive: 18.4 µM [activator, partial curve, poor fit]

Question: Which Potency does the source give for O=C(CSc1ccc(Br)cc1)N1CCOCC1 here?
Answer: inconclusive: 14.6 µM [activator, partial curve, poor fit]

Question: For CC(C)C(C(=O)NC1CCCCC1)N(CC1CCCO1)C(=O)CNS(=O)(=O)c1ccc(F)cc1 (stereo not given), which Potency is on record?
Answer: inconclusive: 18.4 µM [falling, partial curve, poor fit]

Question: Which Potency does the source give for COc1ccc(Nc2nc(NC(C)(C)C)nc(N3CCCC3)n2)c(OC)c1 here?
Answer: inconclusive: 7.31 µM [falling, partial curve, poor fit]

Question: Which Potency does the source give for CN(C(=O)CN1CCC(NC(=O)c2ccccc2Br)CC1)C1CCCCC1 here?
Answer: inconclusive: 11.6 µM [falling, partial curve, poor fit]

Question: With COc1ccc(Cl)cc1C(=O)Nc1ccccc1N1CCN(C)CC1 as the compound, how does the Potency read?
Answer: inconclusive: 5.17 µM [activator, partial curve, poor fit]

Question: Which Potency does the source give for Cc1ccc(C)c(N2CCN(CCCNC(=O)c3ccc4nc(C(C)C)oc4c3)CC2)c1 here?
Answer: inconclusive: 20.6 µM [falling, partial curve, poor fit]

Question: With O=C(NCc1ccccc1)c1ccc2c(c1)sc1nc(-c3ccc(F)cc3)cn12 as the compound, how does the Potency read?
Answer: inactive

Question: Which Potency does the source give for Cc1c(NC(=O)c2cnn3cccnc23)c(=O)n(-c2ccccc2)n1C here?
Answer: inconclusive: 20.6 µM [activator, partial curve, poor fit]

Question: Which Potency does the source give for COc1cc(/C=C2/C(=O)ON=C2c2ccccc2)ccc1O here?
Answer: inconclusive: 29.1 µM [falling, partial curve, poor fit]

Question: Which Potency does the source give for CCOC(=O)NC(=O)COC(=O)CCCSc1nc2ccccc2s1 here?
Answer: inactive

Question: Which Potency does the source give for CCCCCCc1c(O)c2ccccc2[nH]c1=O here?
Answer: inactive

Question: With COC(=O)CCC(=O)Nc1ccc(N=Nc2ccccc2)cc1 as the compound, how does the Potency read?
Answer: inconclusive: 20.6 µM [falling, single point]

Question: For COc1ccc(C2CC(=O)Oc3c(C(CCN4CCCCC4)c4ccc(N(C)C)cc4)c(OC)cc(OC)c32)cc1 (stereo not given), which Potency is on record?
Answer: inconclusive: 23.1 µM [falling, partial curve, poor fit]

Question: For CCc1ccc(-c2cc(C(F)(F)F)n3nc(C(=O)Nc4cnn(Cc5ccc(C)cc5)c4)cc3n2)s1, which Potency is on record?
Answer: active: 25.9 µM

Question: With C=CC[C@H](CC(=O)N(CCO)Cc1ccccc1)C(=O)N[C@@H](COC(=O)[C@H](CC=C)CC(=O)OC(C)(C)C)Cc1c[nH]c2ccccc12 as the compound, how does the Potency read?
Answer: inconclusive: 23.1 µM [falling, single point]

Question: Which Potency does the source give for COc1ccccc1OCCNC(=O)c1ccc2c(c1)OCCO2 here?
Answer: inactive

Question: Which Potency does the source give for COc1ccc(C(=O)Oc2ccc(C3NC(=O)c4c(sc5c4CCN(C)C5)N3)cc2OC)cc1 (stereo not given) here?
Answer: inactive

Question: With CC(=O)N1CCN(S(=O)(=O)c2cccc(C(=O)Nc3nccs3)c2)CC1 as the compound, how does the Potency read?
Answer: inconclusive: 29.1 µM [activator, single point]

Question: Which Potency does the source give for CS(=O)(=O)N1CCN(c2ccccc2NC(=O)c2ccc([N+](=O)[O-])o2)CC1 here?
Answer: inactive

Question: Which Potency does the source give for CCn1c(=O)cc(SCC(=O)NCc2ccc(C)o2)c2ccccc21 here?
Answer: inconclusive: 25.9 µM [falling, partial curve, poor fit]

Question: With COc1cccc(C)c1NC(=O)C(OC(=O)CNC(=O)c1ccccc1)c1ccccc1 (stereo not given) as the compound, how does the Potency read?
Answer: inactive

Question: With O=C(Cc1ccc(Br)cc1)NC1CCN(Cc2ccccc2)CC1 as the compound, how does the Potency read?
Answer: inconclusive: 29.1 µM [falling, partial curve, poor fit]

Question: Which Potency does the source give for Cc1nc2nc(C)c(CCC(=O)NCc3cccc(Cl)c3)c(C)n2n1 here?
Answer: inactive

Question: With CC1=Nc2cc(C(=O)NCc3ccco3)ccc2Sc2ccc(C)cc21 as the compound, how does the Potency read?
Answer: inconclusive: 2.31 µM [falling, partial curve, poor fit]

Question: For CC1(C)CNC(=O)c2sc(N3CCOCC3)nc2C1, which Potency is on record?
Answer: inconclusive: 2.06 µM [falling, partial curve]

Question: With CC(C)(C)c1cc(NCCCn2ccnc2)n2ncc(-c3ccc(Cl)cc3)c2n1 as the compound, how does the activity change, negative = cytotoxicity read?
Answer: inactive: -2.22% [at 1.84 µM]

Question: For CC(CCc1ccccc1)NC(=O)c1ccc(C(=O)NC(C)CCc2ccccc2)cc1 (stereo not given), which Potency is on record?
Answer: inconclusive: 29.1 µM [falling, single point]

Question: With Cc1cccc(N(C(=O)c2ccc(Cl)cc2)C2CS(=O)(=O)CC2OC(=O)c2ccc(Cl)cc2)c1 (stereo not given) as the compound, how does the Potency read?
Answer: inconclusive: 29.1 µM [falling, single point]

Question: Which Potency does the source give for Cc1ccc(CCNC(=O)c2ccc(CSc3nc4ccncc4n3Cc3ccc(F)cc3)cc2)cc1 here?
Answer: inconclusive: 29.1 µM [falling, single point]

Question: Which Potency does the source give for O=C(NCC(c1cccs1)N1CCOCC1)c1ccc(Cl)s1 (stereo not given) here?
Answer: inconclusive: 5.17 µM [falling, partial curve, poor fit]

Question: With O=C(CN1CCN(S(=O)(=O)c2ccccc2)CC1)Nc1ccc(Cl)c(Cl)c1 as the compound, how does the Potency read?
Answer: inconclusive: 32.6 µM [falling, partial curve, poor fit]

Question: With COc1ccccc1C1C(C(C)=O)=C(C)N=c2s/c(=C\c3cc(OC)c(OC)c(OC)c3)c(=O)n21 (stereo not given) as the compound, how does the Potency read?
Answer: inconclusive: 14.6 µM [falling, partial curve, poor fit]

Question: With COc1ccc(-c2cc(C(=O)NCCc3ccccc3)c3c(-c4ccccc4)[nH]nc3n2)cc1 as the compound, how does the Potency read?
Answer: inconclusive: 32.6 µM [falling, single point]

Question: For COc1ccccc1N1CCN(c2nc3ccccc3nc2C(C#N)C(=O)OC(C)C)CC1 (stereo not given), which Potency is on record?
Answer: inconclusive: 14.6 µM [falling, partial curve, poor fit]

Question: With CCC(C)c1ccc(S(=O)(=O)N2CCN(C(=O)COc3ccc4c(C)cc(=O)oc4c3)CC2)cc1 (stereo not given) as the compound, how does the Potency read?
Answer: inactive

Question: Which Potency does the source give for CCOc1cc(CNCCSc2nnnn2C)cc(Cl)c1OCc1ccc(Cl)cc1 here?
Answer: inconclusive: 18.4 µM [falling, single point]

Question: For COc1ccc(Br)cc1C1CC(=O)N2CN(Cc3ccccc3)CSC2=C1C#N (stereo not given), which Potency is on record?
Answer: inactive

Question: With CSCC(=O)Nc1cc(C)on1 as the compound, how does the Potency read?
Answer: inactive

Question: Which Potency does the source give for COc1ccc(N2CCN(C(=O)CCc3c(C)nc4cc(-c5cccc(F)c5)nn4c3C)CC2)cc1 here?
Answer: inactive

Question: Which Potency does the source give for Cc1cccc(Nc2nc(NCc3ccco3)c3ccccc3n2)c1 here?
Answer: inactive

Question: With Cc1ccc(/C=C/c2nc3ccccc3n2S(=O)(=O)c2ccc(Br)cc2)cc1 as the compound, how does the Potency read?
Answer: inactive

Question: Which Potency does the source give for NC(=O)c1ccccc1N/C=C1\CCCCC1=O here?
Answer: inconclusive: 0.092 µM [activator, full curve, poor fit]

Question: With Cc1nc(-c2ccccc2)sc1-c1nc(-c2ccncc2)ncc1S(=O)(=O)c1ccccc1 as the compound, how does the Potency read?
Answer: inconclusive: 18.4 µM [falling, partial curve, poor fit]

Question: For Cn1cccc1Cc1nnc(SCC(=O)Nc2ccc(F)cc2)n1-c1ccc(F)cc1, which Potency is on record?
Answer: inconclusive: 6.51 µM [activator, partial curve, poor fit]

Question: Which Potency does the source give for CCOc1ccc(NC(=O)CC2C(=O)N(c3cccc(C)c3)C(=O)N2CCC2=CCCCC2)cc1 (stereo not given) here?
Answer: inconclusive: 18.4 µM [falling, single point]

Question: For Cc1nc(Cl)c(C(=O)NC(=O)Nc2cccc(C(F)(F)F)c2)c(C)c1[N+](=O)[O-], which Potency is on record?
Answer: inconclusive: 35.5 µM [falling, single point]

Question: Which Potency does the source give for CCc1c(-c2ccccc2)nc2nc(C)c(C)nn12 here?
Answer: inconclusive: 13 µM [activator, single point]

Question: For COC(=O)c1c(NC(=O)c2c(OC)cccc2OC)sc2c1C(C(=O)OC)CC2 (stereo not given), which Potency is on record?
Answer: inconclusive: 11.6 µM [falling, partial curve]

Question: With Cc1cc(C)c(C(=O)N2CCC(N3CCC(C(=O)NC(C)C)CC3)CC2)o1 as the compound, how does the Potency read?
Answer: inactive

Question: Which Potency does the source give for O=C(O)c1ccc(N/N=C/c2ccc3nccnc3c2)cc1 here?
Answer: inconclusive: 20.6 µM [falling, single point]

Question: For O=C(Cc1nnc(CNC(=O)c2ccccc2)o1)Nc1cc(C(F)(F)F)ccc1Cl, which Potency is on record?
Answer: inactive

Question: For CC1=C([N+](=O)[O-])C(c2cccc(Br)c2)C2=C(N1)c1ccccc1C2=O (stereo not given), which Potency is on record?
Answer: inconclusive: 13 µM [falling, partial curve, poor fit]

Question: For C[n+]1c(-c2ccccc2)cc2c(=Cc3ccccc3)c3ccccc3n21, which Potency is on record?
Answer: inconclusive: 14.6 µM [falling, partial curve]

Question: With CCOc1cc(CN2CCN(c3cccc(C(F)(F)F)c3)CC2)ccc1OC as the compound, how does the Potency read?
Answer: inactive

Question: Which Potency does the source give for O=C(Cn1c(COc2ccccc2)nc2ccccc21)Nc1cc(Cl)ccc1Cl here?
Answer: inconclusive: 9.2 µM [falling, partial curve, poor fit]

Question: Which Potency does the source give for Cc1ccc(NC(=O)N2CCC(C(=O)NCc3ccccc3)CC2)cc1 here?
Answer: inconclusive: 29.1 µM [falling, single point]

Question: Which Potency does the source give for Cc1ccc(NC(=O)c2ccc3c(c2)NC(=O)c2ccccc2S3)cc1 here?
Answer: inconclusive: 32.6 µM [falling, single point]

Question: Which Potency does the source give for Cc1cccc(Nc2nc(N)nc(CCl)n2)c1C here?
Answer: inconclusive: 9.2 µM [falling, partial curve, poor fit]

Question: For CCOc1cc(C2CC(=O)Nc3c2c(=O)nc(SCc2cccc(Cl)c2)n3C)ccc1O (stereo not given), which Potency is on record?
Answer: inactive

Question: For CCOC(=O)c1[nH]c(C)c(C(=O)OCc2ccccc2F)c1C, which Potency is on record?
Answer: inconclusive: 16.4 µM [falling, partial curve, poor fit]

Question: Which Potency does the source give for COc1ccc(C2c3c(ncn(CCN4CCOCC4)c3=N)Oc3ccc4ccccc4c32)cc1 (stereo not given) here?
Answer: inactive
